Assay results: publication PMC9684302
Results are given in words; binding and its absence hold for the method and conditions named. In cells and extracts the contact can be indirect. Here binding means that the protein was enriched with, or labelled near, the bait; the list need not be complete. For some assays here: No binding means not detected with the bait. For some assays here: Where a sequence is shown, tags or fusion partners need not be part of it.

Protein sequences, listed by entry. Tags and fused reporters are not part of them.
UniProt Q16637: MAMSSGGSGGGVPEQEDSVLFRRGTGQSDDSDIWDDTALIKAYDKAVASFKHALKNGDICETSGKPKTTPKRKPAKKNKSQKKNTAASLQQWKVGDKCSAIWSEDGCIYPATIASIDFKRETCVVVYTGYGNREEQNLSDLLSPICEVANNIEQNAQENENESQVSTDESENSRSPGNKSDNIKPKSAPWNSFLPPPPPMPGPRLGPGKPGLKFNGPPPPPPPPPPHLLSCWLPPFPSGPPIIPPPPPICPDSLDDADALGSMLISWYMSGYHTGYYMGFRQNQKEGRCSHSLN

Columns and labels:
MYC-BirA-SMN (human) [1] = target: MYC-BirA-SMN (human) (UniProt Q16637); assay: proximity labelling; BioID in stably transduced HEK293T (BirA, BirA-SMN, BirA-SMN Y109C), streptavidin-Sepharose, label-free quantitative mass spectrometry, triplicate; BirA-SMN compared with BirA alone and with BirA-SMN Y109C
MYC-BirA-SMN (human) [2] = target: MYC-BirA-SMN (human) (UniProt Q16637); assay: proximity labelling; BioID: FLAG-tagged candidates co-expressed with MYC-BirA or MYC-BirA-SMN in HEK293T, doxycycline and biotin; biotinylated proteins purified on streptavidin-Sepharose, immunoblot
[3] = target: MYC-BirA-SMN (human), Q16637; assay: proximity labelling; BioID in stably transduced HEK293T (BirA, BirA-SMN, BirA-SMN Y109C), streptavidin-Sepharose, label-free quantitative mass spectrometry, triplicate; BirA-SMN compared with BirA alone and with BirA-SMN Y109C; details: remark: other sources report otherwise

binding (MYC-BirA-SMN (human) [1])	Binder	also measured
binds	GEMIN8 (protein, UniProt Q9NWZ8 1-242) MAAVKASTSKATRPWYSHPVYARYWQHYHQAMAWMQSHHNAYRKAVESCFNLPWYLPSALLPQSSYDNEAAYPQSFYDHHVAWQDYPCSSSHFRRSGQHPRYSSRIQASTKEDQALSKEEEMETESDAEVECDLSNMEITEELRQYFAETERHREERRRQQQLDAERLDSYVNADHDLYCNTRRSVEAPTERPGERRQAEMKRLYGDSAAKIQAMEAAVQLSFDKHCDRKQPKYWPVIPLKF	
binds	GIGYF2 (protein, UniProt Q6Y7W6 1-1299) MAAETQTLNFGPEWLRALSSGGSITSPPLSPALPKYKLADYRYGREEMLALFLKDNKIPSDLLDKEFLPILQEEPLPPLALVPFTEEEQRNFSMSVNSAAVLRLTGRGGGGTVVGAPRGRSSSRGRGRGRGECGFYQRSFDEVEGVFGRGGGREMHRSQSWEERGDRRFEKPGRKDVGRPNFEEGGPTSVGRKHEFIRSESENWRIFREEQNGEDEDGGWRLAGSRRDGERWRPHSPDGPRSAGWREHMERRRRFEFDFRDRDDERGYRRVRSGSGSIDDDRDSLPEWCLEDAEEEMGTFDSSGAFLSLKKVQKEPIPEEQEMDFRPVDEGEECSDSEGSHNEEAKEPDKTNKKEGEKTDRVGVEASEETPQTSSSSARPGTPSDHQSQEASQFERKDEPKTEQTEKAEEETRMENSLPAKVPSRGDEMVADVQQPLSQIPSDTASPLLILPPPVPNPSPTLRPVETPVVGAPGMGSVSTEPDDEEGLKHLEQQAEKMVAYLQDSALDDERLASKLQEHRAKGVSIPLMHEAMQKWYYKDPQGEIQGPFNNQEMAEWFQAGYFTMSLLVKRACDESFQPLGDIMKMWGRVPFSPGPAPPPHMGELDQERLTRQQELTALYQMQHLQYQQFLIQQQYAQVLAQQQKAALSSQQQQQLALLLQQFQTLKMRISDQNIIPSVTRSVSVPDTGSIWELQPTASQPTVWEGGSVWDLPLDTTTPGPALEQLQQLEKAKAAKLEQERREAEMRAKREEEERKRQEELRRQQEEILRRQQEEERKRREEEELARRKQEEALRRQREQEIALRRQREEEERQQQEEALRRLEERRREEEERRKQEELLRKQEEEAAKWAREEEEAQRRLEENRLRMEEEAARLRHEEEERKRKELEVQRQKELMRQRQQQQEALRRLQQQQQQQQLAQMKLPSSSTWGQQSNTTACQSQATLSLAEIQKLEEERERQLREEQRRQQRELMKALQQQQQQQQQKLSGWGNVSKPSGTTKSLLEIQQEEARQMQKQQQQQQQHQQPNRARNNTHSNLHTSIGNSVWGSINTGPPNQWASDLVSSIWSNADTKNSNMGFWDDAVKEVGPRNSTNKNKNNASLSKSVGVSNRQNKKVEEEEKLLKLFQGVNKAQDGFTQWCEQMLHALNTANNLDVPTFVSFLKEVESPYEVHDYIRAYLGDTSEAKEFAKQFLERRAKQKANQQRQQQQLPQQQQQQPPQQPPQQPQQQDSVWGMNHSTLHSVFQTNQSNNQQSNFEAVQSGKKKKKQKMVRADPSLLGFSVNASSERLNMGEIETLDDY	
binds	AVEN (protein, UniProt Q9NQS1 1-362) MQAERGARGGRGRRPGRGRPGGDRHSERPGAAAAVARGGGGGGGGDGGGRRGRGRGRGFRGARGGRGGGGAPRGSRREPGGWGAGASAPVEDDSDAETYGEENDEQGNYSKRKIVSNWDRYQDIEKEVNNESGESQRGTDFSVLLSSAGDSFSQFRFAEEKEWDSEASCPKQNSAFYVDSELLVRALQELPLCLRLNVAAELVQGTVPLEVPQVKPKRTDDGKGLGMQLKGPLGPGGRGPIFELKSVAAGCPVLLGKDNPSPGPSRDSQKPTSPLQSAGDHLEEELDLLLNLDAPIKEGDNILPDQTSQDLKSKEDGEVVQEEEVCAKPSVTEEKNMEPEQPSTSKNVTEEELEDWLDSMIS	
binds	FIBRILLARIN (protein, UniProt P22087 1-321) MKPGFSPRGGGFGGRGGFGDRGGRGGRGGFGGGRGRGGGFRGRGRGGGGGGGGGGGGGRGGGGFHSGGNRGRGRGGKRGNQSGKNVMVEPHRHEGVFICRGKEDALVTKNLVPGESVYGEKRVSISEGDDKIEYRAWNPFRSKLAAAILGGVDQIHIKPGAKVLYLGAASGTTVSHVSDIVGPDGLVYAVEFSHRSGRDLINLAKKRTNIIPVIEDARHPHKYRMLIAMVDVIFADVAQPDQTRIVALNAHTFLRNGGHFVISIKANCIDSTASAEAVFASEVKKMQQENMKPQEQLTLEPYERDHAVVVGVYRPPPKVKN	
	FLAG-CSRP2 (protein, UniProt Q16527 1-193) MPVWGGGNKCGACGRTVYHAEEVQCDGRSFHRCCFLCMVCRKNLDSTTVAIHDEEIYCKSCYGKKYGPKGYGYGQGAGTLNMDRGERLGIKPESVQPHRPTTNPNTSKFAQKYGGAEKCSRCGDSVYAAEKIIGAGKPWHKNCFRCAKCGKSLESTTLTEKEGEIYCKGCYAKNFGPKGFGYGQGAGALVHAQ	binding (MYC-BirA-SMN (human) [2]): no binding
	GEMIN4, P57678 1-1058 (protein) MDLGPLNICEEMTILHGGFLLAEQLFHPKALAELTKSDWERVGRPIVEALREISSAAAHSQPFAWKKKALIIIWAKVLQPHPVTPSDTETRWQEDLFFSVGNMIPTINHTILFELLKSLEASGLFIQLLMALPTTICHAELERFLEHVTVDTSAEDVAFFLDVWWEVMKHKGHPQDPLLSQFSAMAHKYLPALDEFPHPPKRLRSDPDACPTMPLLAMLLRGLTQIQSRILGPGRKCCALANLADMLTVFALTEDDPQEVSATVYLDKLATVISVWNSDTQNPYHQQALAEKVKEAERDVSLTSLAKLPSETIFVGCEFLHHLLREWGEELQAVLRSSQGTSYDSYRLCDSLTSFSQNATLYLNRTSLSKEDRQVVSELAECVRDFLRKTSTVLKNRALEDITASIAMAVIQQKMDRHMEVCYIFASEKKWAFSDEWVACLGSNRALFRQPDLVLRLLETVIDVSTADRAIPESQIRQVIHLILECYADLSLPGKNKVLAGILRSWGRKGLSEKLLAYVEGFQEDLNTTFNQLTQSASEQGLAKAVASVARLVIVHPEVTVKKMCSLAVVNLGTHKFLAQILTAFPALRFVEEQGPNSSATFMVSCLKETVWMKFSTPKEEKQFLELLNCLMSPVKPQGIPVAALLEPDEVLKEFVLPFLRLDVEEVDLSLRIFIQTLEANACREEYWLQTCSPFPLLFSLCQLLDRFSKYWQLPKEKRCLSLDRKDLAIHILELLCEIVSANAETFSPDVWIKSLSWLHRKLEQLDWTVGLRLKSFFEGHFKCEVPATLFEICKLSEDEWTSQAHPGYGAGTGLLAWMECCCVSSGISERMLSLLVVDVGNPEEVRLFSKGFLVALVQVMPWCSPQEWQRLHQLTRRLLEKQLLHVPYSLEYIQFVPLLNLKPFAQELQLSVLFLRTFQFLCSHSCRDWLPLEGWNHVVKLLCGSLTRLLDSVRAIQAAGPWVQGPEQDLTQEALFVYTQVFCHALHIMAMLHPEVCEPLYVLALETLTCYETLSKTNPSVSSLLQRAHEQRFLKSIAEGIGPEERRQTLLQKMSSF	binding [3]: binds
binds	ZNF598 (protein, UniProt Q86UK7 1-904) MAAAGGAEGRRAALEAAAAAAPERGGGSCVLCCGDLEATALGRCDHPVCYRCSTKMRVLCEQRYCAVCREELRQVVFGKKLPAFATIPIHQLQHEKKYDIYFADGKVYALYRQLLQHECPRCPELPPFSLFGDLEQHMRRQHELFCCRLCLQHLQIFTYERKWYSRKDLARHRMQGDPDDTSHRGHPLCKFCDERYLDNDELLKHLRRDHYFCHFCDSDGAQDYYSDYAYLREHFREKHFLCEEGRCSTEQFTHAFRTEIDLKAHRTACHSRSRAEARQNRHIDLQFSYAPRHSRRNEGVVGGEDYEEVDRYSRQGRVARAGTRGAQQSRRGSWRYKREEEDREVAAAVRASVAAQQQEEARRSEDQEEGGRPKKEEAAARGPEDPRGPRRSPRTQGEGPGPKETSTNGPVSQEAFSVTGPAAPGCVGVPGALPPPSPKLKDEDFPSLSASTSSSCSTAATPGPVGLALPYAIPARGRSAFQEEDFPALVSSVPKPGTAPTSLVSAWNSSSSSKKVAQPPLSAQATGSGQPTRKAGKGSRGGRKGGPPFTQEEEEDGGPALQELLSTRPTGSVSSTLGLASIQPSKVGKKKKVGSEKPGTTLPQPPPATCPPGALQAPEAPASRAEGPVAVVVNGHTEGPAPARSAPKEPPGLPRPLGSFPCPTPQEDFPALGGPCPPRMPPPPGFSAVVLLKGTPPPPPPGLVPPISKPPPGFSGLLPSPHPACVPSPATTTTTKAPRLLPAPRAYLVPENFRERNLQLIQSIRDFLQSDEARFSEFKSHSGEFRQGLISAAQYYKSCRDLLGENFQKVFNELLVLLPDTAKQQELLSAHTDFCNREKPLSTKSKKNKKSAWQATTQQAGLDCRVCPTCQQVLAHGDASSHQALHAARDDDFPSLQAIARIIT	
binds	PATL1 (protein, UniProt Q86TB9 1-770) MFRYESLEDCPLDEDEDAFQGLGEEDEEIDQFNDDTFGSGAVDDDWQEAHERLAELEEKLPVAVNEQTGNGERDEMDLLGDHEENLAERLSKMVIENELEDPAIMRAVQTRPVLQPQPGSLNSSIWDGSEVLRRIRGPLLAQEMPTVSVLEYALPQRPPQGPEDDRDLSERALPRRSTSPIIGSPPVRAVPIGTPPKQMAVPSFTQQILCPKPVHVRPPMPPRYPAPYGERMSPNQLCSVPNSSLLGHPFPPSVPPVLSPLQRAQLLGGAQLQPGRMSPSQFARVPGFVGSPLAAMNPKLLQGRVGQMLPPAPGFRAFFSAPPSATPPPQQHPPGPGPHLQNLRSQAPMFRPDTTHLHPQHRRLLHQRQQQNRSQHRNLNGAGDRGSHRSSHQDHLRKDPYANLMLQREKDWVSKIQMMQLQSTDPYLDDFYYQNYFEKLEKLSAAEEIQGDGPKKERTKLITPQVAKLEHAYKPVQFEGSLGKLTVSSVNNPRKMIDAVVTSRSEDDETKEKQVRDKRRKTLVIIEKTYSLLLDVEDYERRYLLSLEEERPALMDDRKHKICSMYDNLRGKLPGQERPSDDHFVQIMCIRKGKRMVARILPFLSTEQAADILMTTARNLPFLIKKDAQDEVLPCLLSPFSLLLYHLPSVSITSLLRQLMNLPQSAATPALSNPHLTAVLQNKFGLSLLLILLSRGEDLQSSDPATESTQNNQWTEVMFMATRELLRIPQAALAKPISIPTNLVSLFSRYVDRQKLNLLETKLQLVQGIR	
